Test results: US20050261472A1, “Binding moieties for fibrin” (Dyax Corp., priority 1999, published 2005)
No constants are given. Whether binding was seen depends on the method and setting. Some entries that bind do so weakly or less than the wild type.

T1: dried fibrin (UniProt P02671 36-629; P02675 45-491; P02679 27-437, limits assumed)
T1 construct: Polymerised fibrin made in 96-well plates from fibrinogen and thrombin, dried at 37 C and rehydrated; also called (rehydrated) dried fibrin; fibrin target
T1 sequence (looked up) 1: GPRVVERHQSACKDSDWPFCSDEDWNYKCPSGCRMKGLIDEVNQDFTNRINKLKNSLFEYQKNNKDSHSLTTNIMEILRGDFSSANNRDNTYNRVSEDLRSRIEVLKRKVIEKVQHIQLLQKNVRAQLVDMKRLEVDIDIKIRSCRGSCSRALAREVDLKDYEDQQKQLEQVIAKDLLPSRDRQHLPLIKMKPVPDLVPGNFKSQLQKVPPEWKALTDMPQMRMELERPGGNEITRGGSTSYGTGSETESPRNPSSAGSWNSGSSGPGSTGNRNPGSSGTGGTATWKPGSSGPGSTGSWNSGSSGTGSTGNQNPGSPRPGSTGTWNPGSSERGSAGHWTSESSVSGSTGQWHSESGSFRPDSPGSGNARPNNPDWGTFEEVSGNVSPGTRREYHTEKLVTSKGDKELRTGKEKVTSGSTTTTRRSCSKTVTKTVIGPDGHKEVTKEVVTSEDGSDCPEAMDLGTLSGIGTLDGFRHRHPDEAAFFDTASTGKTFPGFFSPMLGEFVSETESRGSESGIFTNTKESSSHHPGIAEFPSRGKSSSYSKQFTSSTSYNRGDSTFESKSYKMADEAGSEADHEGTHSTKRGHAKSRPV
T1 sequence (looked up) 2: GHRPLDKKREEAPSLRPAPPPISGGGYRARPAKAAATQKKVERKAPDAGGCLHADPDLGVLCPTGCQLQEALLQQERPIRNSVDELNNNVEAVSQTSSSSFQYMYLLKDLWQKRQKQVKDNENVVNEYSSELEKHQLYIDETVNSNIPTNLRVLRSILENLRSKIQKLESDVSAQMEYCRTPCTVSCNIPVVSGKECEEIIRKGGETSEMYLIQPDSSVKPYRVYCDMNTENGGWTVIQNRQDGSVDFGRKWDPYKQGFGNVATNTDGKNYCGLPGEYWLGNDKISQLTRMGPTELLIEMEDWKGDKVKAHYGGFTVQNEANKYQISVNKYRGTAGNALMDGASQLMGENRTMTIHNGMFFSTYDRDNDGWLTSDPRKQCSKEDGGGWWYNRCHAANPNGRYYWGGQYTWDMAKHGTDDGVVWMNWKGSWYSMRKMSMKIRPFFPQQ
T1 sequence (looked up) 3: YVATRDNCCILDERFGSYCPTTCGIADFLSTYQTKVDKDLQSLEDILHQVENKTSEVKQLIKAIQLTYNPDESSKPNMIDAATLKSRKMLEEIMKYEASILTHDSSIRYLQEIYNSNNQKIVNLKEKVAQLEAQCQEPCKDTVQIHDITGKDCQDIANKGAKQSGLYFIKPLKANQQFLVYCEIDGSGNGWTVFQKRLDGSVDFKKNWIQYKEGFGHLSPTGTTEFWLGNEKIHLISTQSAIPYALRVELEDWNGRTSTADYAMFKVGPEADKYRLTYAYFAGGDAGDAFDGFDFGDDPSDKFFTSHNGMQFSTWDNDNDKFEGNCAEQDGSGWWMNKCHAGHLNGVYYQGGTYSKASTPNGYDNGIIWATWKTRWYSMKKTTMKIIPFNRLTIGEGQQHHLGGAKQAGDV


Each binder was assayed against T1, dried fibrin (assay: phage binding assays as for the TN7 library).

| Binder | binding |
| --- | --- |
| NHGCYNSYGVPYCDYS (peptide, not shown: large carriers) | binds |
| RFLCYDSYYHWWCSHH (peptide, not shown: large carriers) | binds |
| WFHCPYDLCHIL (peptide, not shown: large carriers) | binds |
| QWECPYGLCWIQ (peptide, not shown: large carriers) | binds |

What follows are binders tested against dried fibrin (UniProt P02671) (assay: phage ELISA on dried fibrin plate, anti-M13-HRP; relative binding).

| Binder | binding |
| --- | --- |
| RPCDYYGTCFD (peptide, not shown: large carriers) [TN7 isolate 1, phage-displayed …] | binds |
| RPCNYYGTCLH (peptide, not shown: large carriers) [TN7 isolate 10, phage-displayed …] | binds |
| LPCDYYGTCLD (peptide, not shown: large carriers) [TN7 isolate 3, phage-displayed …] | binds |
| LPCSYYGTCLH (peptide, not shown: large carriers) [TN7 isolate 5, phage-displayed …] | binds |
| FACHYYGTCLH (peptide, not shown: large carriers) [TN7 isolate 6, phage-displayed …] | binds |

Each binder was assayed against T1, dried fibrin in the same assay as above.

| Binder | binding |
| --- | --- |
| HDCQYYGTCLH (peptide, not shown: large carriers) [TN7 isolate 11, phage-displayed …] | binds |
| FSCWYSLHCHR (peptide, not shown: large carriers) [TN7 isolate 12, phage-displayed …] | binds |
| LSCDYYGTCLR (peptide, not shown: large carriers) [TN7 isolate 2, phage-displayed …] | binds |
| DPCSYYGTCLH (peptide, not shown: large carriers) [TN7 isolate 4, phage-displayed …] | binds |
| LACHYYGTCLH (peptide, not shown: large carriers) [TN7 isolate 7, phage-displayed …] | binds |
| DGCHYYGTCLH (peptide, not shown: large carriers) [TN7 isolate 8, phage-displayed …] | binds |
| RSCNYYGTCLH (peptide, not shown: large carriers) [TN7 isolate 9, phage-displayed …] | binds |
